Laboratory results taken from article PMC7171071.
These are yes or no findings as the source states them, for the method shown. In cells and extracts the contact can be indirect. Some results given as binding are weak or reduced against the parent protein; the word gives no strength.

Tests used:
[1] = biological target: BAX (human (endogenous in HCT116)), Q07812; assay: co-IP; endogenous proteins in HCT116 lysates (NP40 0.5%, 150 mM NaCl, 50 mM Tris, pH 7.4); overnight at 4 °C with BCL-XL-, MCL-1-, BAX- or NOXA-specific antibodies, protein G agarose, western blot; cells untreated or challenged with NaCl (60 mM, 5 h or 24 h), WEHI-539 (1.25 µM) or S63845 (2.5 µM); settings: remark: other sources report otherwise
[2] = biological target: MCL-1 (human (endogenous in HCT116)), Q07820; assay: as above; settings: remark: other sources report otherwise

binding [1]: no binding | binding [2]: binds
B1: NOXA, Q13794 1-54 (protein)
chain: MPGKKARKNAQPSPARAPAELEVECATQLRRFGDKLNFRQKLLNLISKLFCSGT
